# Assay results: the M2OR odorant receptor database
# Chains of the proteins cited; added tags and fusions are not shown. A line that says so, or that is headed by a name, gives the form on record, which may keep a tag or linker.
# O13A1, as listed by the source: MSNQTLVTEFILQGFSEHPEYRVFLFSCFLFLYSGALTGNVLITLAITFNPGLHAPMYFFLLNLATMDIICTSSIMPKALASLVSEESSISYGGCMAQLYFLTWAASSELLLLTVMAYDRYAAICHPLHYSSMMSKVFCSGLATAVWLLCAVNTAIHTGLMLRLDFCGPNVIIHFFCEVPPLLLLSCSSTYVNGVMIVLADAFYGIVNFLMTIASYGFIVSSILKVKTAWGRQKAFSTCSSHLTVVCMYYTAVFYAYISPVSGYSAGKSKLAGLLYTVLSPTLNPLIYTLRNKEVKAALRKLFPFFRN
# O11H6, as listed by the source: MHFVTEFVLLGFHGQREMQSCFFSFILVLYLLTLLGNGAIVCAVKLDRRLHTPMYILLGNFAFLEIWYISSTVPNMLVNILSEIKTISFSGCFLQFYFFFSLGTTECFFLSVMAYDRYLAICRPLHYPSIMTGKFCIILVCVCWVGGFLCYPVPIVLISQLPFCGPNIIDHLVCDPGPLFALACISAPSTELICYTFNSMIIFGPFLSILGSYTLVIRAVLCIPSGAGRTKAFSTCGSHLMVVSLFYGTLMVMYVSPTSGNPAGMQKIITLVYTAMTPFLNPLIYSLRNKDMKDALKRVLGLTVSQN
# O11H2, as listed by the source: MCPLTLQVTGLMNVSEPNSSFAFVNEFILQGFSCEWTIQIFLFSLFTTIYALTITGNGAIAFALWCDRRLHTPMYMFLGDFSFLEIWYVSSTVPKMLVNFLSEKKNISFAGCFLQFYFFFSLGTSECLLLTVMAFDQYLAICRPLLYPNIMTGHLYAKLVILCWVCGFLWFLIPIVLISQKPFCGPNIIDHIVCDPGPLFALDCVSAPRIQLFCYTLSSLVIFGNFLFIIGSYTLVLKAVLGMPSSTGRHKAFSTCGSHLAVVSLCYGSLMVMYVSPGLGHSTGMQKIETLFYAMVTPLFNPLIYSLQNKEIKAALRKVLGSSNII
# Changes are numbered by the printed parent chain. Some of the results follow. Calls are pooled over several reports, among them a noisy single-well screen.
# Assays:
# Conditions in all cases: stereoisomer not certain
# O11H1 [1] = tested on: T1, O11H1
# T1 sequence (whole entry): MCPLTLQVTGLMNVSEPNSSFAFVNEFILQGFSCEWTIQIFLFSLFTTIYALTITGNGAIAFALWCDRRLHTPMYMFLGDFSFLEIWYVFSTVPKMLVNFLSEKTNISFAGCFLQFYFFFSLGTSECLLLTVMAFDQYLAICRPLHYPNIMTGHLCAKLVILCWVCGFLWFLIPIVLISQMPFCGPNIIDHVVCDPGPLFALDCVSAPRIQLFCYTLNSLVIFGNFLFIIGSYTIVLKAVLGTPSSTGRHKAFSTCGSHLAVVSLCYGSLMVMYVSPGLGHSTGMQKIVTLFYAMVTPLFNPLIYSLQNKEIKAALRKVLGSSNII
# Method in brief: (§1)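 Each receptor–molecule pair is labelled responsive or non-responsive (inactive) according to whether the original authors judged the measured signal statistically different from baseline. The data were taken from the main text and supplementary material of published papers and checked for typos and inconsistencies. Assay methods differed by source, with transient luciferase assays in mammalian cell lines being common.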
# O11H1 [2] = tested on: T2, O11H1; remark: listed apart in the source
# T2 sequence (whole entry): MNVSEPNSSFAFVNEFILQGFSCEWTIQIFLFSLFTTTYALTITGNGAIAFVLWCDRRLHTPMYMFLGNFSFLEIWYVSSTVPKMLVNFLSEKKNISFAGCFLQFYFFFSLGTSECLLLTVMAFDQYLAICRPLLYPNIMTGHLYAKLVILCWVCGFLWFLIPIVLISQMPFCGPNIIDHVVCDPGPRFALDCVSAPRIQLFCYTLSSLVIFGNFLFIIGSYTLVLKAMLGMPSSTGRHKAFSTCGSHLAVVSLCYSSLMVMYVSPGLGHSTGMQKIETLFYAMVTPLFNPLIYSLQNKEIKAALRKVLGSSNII
# Method in brief: as §1
# O11H2 = tested on: T3, O11H2
# T3 sequence (whole entry): T1 sequence (whole entry) with F90S, T105K, H146L, C156Y, M181K, V192I, N218S, I235L, T243M, V289E
# Method in brief: as §1
# O11H4 = tested on: T4, O11H4
# T4 sequence (whole entry): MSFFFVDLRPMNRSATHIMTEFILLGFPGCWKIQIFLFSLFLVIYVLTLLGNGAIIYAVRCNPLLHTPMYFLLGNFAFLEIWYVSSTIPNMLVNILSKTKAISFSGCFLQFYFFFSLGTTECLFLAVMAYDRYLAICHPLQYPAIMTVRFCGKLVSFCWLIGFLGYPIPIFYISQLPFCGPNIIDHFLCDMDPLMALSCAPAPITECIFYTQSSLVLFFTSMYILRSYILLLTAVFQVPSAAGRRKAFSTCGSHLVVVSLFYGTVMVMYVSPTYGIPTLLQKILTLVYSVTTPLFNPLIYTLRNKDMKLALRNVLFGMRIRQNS
# Method in brief: as §1
# O11L1 = tested on: T5, O11L1
# T5 sequence (whole entry): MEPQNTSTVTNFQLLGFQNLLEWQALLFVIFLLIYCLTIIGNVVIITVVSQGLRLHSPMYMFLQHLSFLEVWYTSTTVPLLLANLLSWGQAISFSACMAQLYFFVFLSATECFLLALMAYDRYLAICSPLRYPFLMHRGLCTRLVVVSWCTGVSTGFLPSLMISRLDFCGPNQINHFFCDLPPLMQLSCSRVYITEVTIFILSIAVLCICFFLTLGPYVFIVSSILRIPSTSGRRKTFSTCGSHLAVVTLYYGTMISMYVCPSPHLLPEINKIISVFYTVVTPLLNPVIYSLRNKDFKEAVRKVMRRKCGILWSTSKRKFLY
# Method in brief: as §1
# O12D2 = tested on: T6, O12D2
# T6 sequence (whole entry): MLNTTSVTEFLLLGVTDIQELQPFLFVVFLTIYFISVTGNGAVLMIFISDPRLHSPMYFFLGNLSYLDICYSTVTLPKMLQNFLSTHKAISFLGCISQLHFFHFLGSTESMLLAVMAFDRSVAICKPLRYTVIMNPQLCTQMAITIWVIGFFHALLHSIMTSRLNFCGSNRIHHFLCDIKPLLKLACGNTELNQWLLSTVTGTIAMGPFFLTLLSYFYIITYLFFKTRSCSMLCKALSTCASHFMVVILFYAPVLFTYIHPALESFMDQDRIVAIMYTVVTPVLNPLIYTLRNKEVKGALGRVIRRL
# Method in brief: as §1
# O13C3 = tested on: T7, O13C3
# T7 sequence (whole entry): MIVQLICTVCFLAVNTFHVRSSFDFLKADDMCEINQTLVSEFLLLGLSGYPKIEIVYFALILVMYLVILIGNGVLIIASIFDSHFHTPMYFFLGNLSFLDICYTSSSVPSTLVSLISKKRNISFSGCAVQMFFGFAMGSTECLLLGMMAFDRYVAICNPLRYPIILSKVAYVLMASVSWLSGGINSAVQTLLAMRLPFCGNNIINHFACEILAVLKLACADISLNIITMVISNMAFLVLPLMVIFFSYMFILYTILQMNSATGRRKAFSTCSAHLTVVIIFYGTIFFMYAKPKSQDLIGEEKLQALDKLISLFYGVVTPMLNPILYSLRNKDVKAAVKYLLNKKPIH
# Method in brief: as §1
# O13A1 [3] = tested on: O13A1
# Method in brief: as §1
# O13A1 [4] = tested on: O13A1; remark: listed apart in the source
# Method in brief: as §1
# O11H6 = tested on: O11H6
# Method in brief: as §1
# 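Also: active if original authors judged signal statistically different from baseline.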
Structure (SMILES),odorant receptor agonist call (O11H1 [1]),odorant receptor agonist call (O11H1 [2]),odorant receptor agonist call (O11H2),odorant receptor agonist call (O11H4),odorant receptor agonist call (O11L1),odorant receptor agonist call (O12D2),odorant receptor agonist call (O13C3),odorant receptor agonist call (O13A1 [3]),odorant receptor agonist call (O13A1 [4]),odorant receptor agonist call (O11H6)
CC12CCC(C1)C(C)(C)C2=O (centres undefined),inactive,inactive,inactive,inactive,inactive,inactive,inactive,–,–,–
C=CCc1ccc(OC)c(OC)c1,inactive,inactive,inactive,inactive,inactive,inactive,inactive,–,–,–
CCCCCCCCCC=O,inactive,inactive,inactive,inactive,inactive,inactive,inactive,–,–,–
COc1cc(C)ccc1O,inactive,inactive,inactive,inactive,inactive,inactive,inactive,–,–,–
CCCCCOC(C)=O,inactive,inactive,inactive,inactive,active,inactive,inactive,–,–,–
CC12C=CCC1C1CCC3=CC(=O)CCC3(C)C1CC2 (centres undefined),inactive,inactive,inactive,inactive,inactive,inactive,inactive,–,–,–
CCCCO,inactive,inactive,inactive,inactive,inactive,inactive,inactive,–,–,–
c1ccc(Oc2ccccc2)cc1,inactive,inactive,inactive,inactive,inactive,inactive,inactive,–,–,–
c1cnccn1,inactive,inactive,inactive,inactive,inactive,inactive,inactive,–,–,–
CC(C)C(=O)O,inactive,inactive,inactive,inactive,inactive,inactive,inactive,–,–,–
CC1COCc2cc3c(cc21)C(C)(C)C(C)C3(C)C (centres undefined),active,active,active,active,active,active,active,–,–,–
C=CC(C)(O)CCC=C(C)C (centres undefined),inactive,inactive,inactive,inactive,inactive,inactive,inactive,inactive,inactive,–
CCCCCCCCCCC=O,inactive,active,inactive,inactive,inactive,inactive,inactive,–,–,–
CCCCCCCC=O,inactive,inactive,inactive,inactive,inactive,inactive,inactive,–,–,–
CC(C)CC(=O)O,inactive,inactive,inactive,active,inactive,inactive,inactive,–,–,active
CCCCCCCOC(C)=O,inactive,inactive,inactive,inactive,inactive,inactive,inactive,–,–,–
COC(=O)c1ccccc1O,inactive,inactive,inactive,inactive,inactive,inactive,inactive,–,–,–
CC(C)(C)c1ccc(CCC=O)cc1,inactive,active,inactive,inactive,inactive,inactive,inactive,–,–,–
CC(=O)OC1CC2CCC1(C)C2(C)C (centres undefined),inactive,inactive,inactive,inactive,inactive,inactive,inactive,–,–,–
CCCCCCCCOC(C)=O,inactive,inactive,inactive,inactive,inactive,inactive,inactive,–,–,–
CC(C)=CCCC(C)=CC=O,inactive,inactive,inactive,inactive,inactive,inactive,inactive,–,–,–
CC(=O)C(C)=O,inactive,inactive,inactive,inactive,inactive,inactive,inactive,–,–,–
CC=Cc1ccc(O)c(OC)c1,inactive,inactive,inactive,inactive,inactive,inactive,inactive,–,–,–
CC(C)CCC(=O)O,inactive,inactive,inactive,inactive,inactive,inactive,inactive,–,–,–
C=CCc1ccc(OC(C)=O)c(OC)c1,inactive,active,inactive,inactive,inactive,inactive,active,–,–,–
CCC1(O)C2(C)CCC(C2)C1(C)C (centres undefined),inactive,active,inactive,inactive,inactive,inactive,inactive,–,–,–

# Copied from the list.
# `C=CCc1ccc(OC(C)=O)c(OC)c1` | odorant receptor agonist call (O11H4): inactive
# `COc1cc(C)ccc1O` | odorant receptor agonist call (O11H1 [2]): inactive
# `CC(=O)C(C)=O` | odorant receptor agonist call (O11H4): inactive

# Following part:

Structure (SMILES),odorant receptor agonist call (O11H1 [1]),odorant receptor agonist call (O11H1 [2]),odorant receptor agonist call (O11H2),odorant receptor agonist call (O11H4),odorant receptor agonist call (O11L1),odorant receptor agonist call (O12D2),odorant receptor agonist call (O13C3),odorant receptor agonist call (O13A1 [3]),odorant receptor agonist call (O13A1 [4]),odorant receptor agonist call (O11H6)
CC(=O)c1ccccc1,inactive,–,inactive,inactive,inactive,inactive,active,–,–,–
CC1=NC(C)SC1C (centres undefined),inactive,–,inactive,inactive,inactive,inactive,inactive,inactive,–,–
CC(=O)OCC=C(C)CCC=C(C)C,inactive,inactive,inactive,active,inactive,inactive,inactive,–,–,–
CC(C)(O)CCCC1=CCC(C=O)CC1 (centres undefined),–,inactive,–,–,–,–,–,–,–,–
COc1ccccc1O,inactive,inactive,inactive,inactive,inactive,inactive,inactive,–,–,–
CC12C=CCC1C1CCC3CC(=O)CCC3(C)C1CC2 (centres undefined),inactive,inactive,inactive,inactive,inactive,inactive,inactive,–,–,–
CC1CCC(C(C)C)C(O)C1 (centres undefined),inactive,inactive,inactive,inactive,inactive,inactive,inactive,–,–,–
CC(=O)OC(C)(C)C1CC=C(C)CC1 (centres undefined),inactive,active,inactive,inactive,inactive,inactive,inactive,–,–,–
CC12CCC(CC1)C(C)(C)O2,inactive,inactive,inactive,inactive,inactive,inactive,inactive,–,–,–
CCCCCCCC=CC=O,inactive,active,inactive,inactive,active,inactive,inactive,–,–,–
CC1=CCC(C(C)(C)O)CC1 (centres undefined),inactive,inactive,inactive,inactive,inactive,inactive,inactive,–,–,–
CC(C)C=O,inactive,inactive,inactive,inactive,inactive,inactive,inactive,–,–,–
O=CCc1ccccc1,inactive,active,inactive,inactive,inactive,inactive,inactive,–,–,–
COc1cc(C=O)ccc1O,inactive,inactive,inactive,inactive,inactive,inactive,inactive,–,–,–
CCCC(=O)O,inactive,inactive,inactive,inactive,inactive,inactive,inactive,–,–,–
C=C(C)C1CCC2=CC(=O)CC(C)C2(C)C1 (centres undefined),–,active,–,–,–,–,–,–,–,–
CCCCCC(C)=O,inactive,–,inactive,inactive,inactive,inactive,inactive,–,–,–
C=CCSCC=C,inactive,inactive,inactive,inactive,inactive,inactive,inactive,–,–,–
O=C1CCCCC1,inactive,–,inactive,inactive,inactive,inactive,inactive,–,–,–
CCCCCCOC(=O)CCC,inactive,inactive,inactive,inactive,inactive,inactive,inactive,–,–,–
O=C1CCCCCCCCCCCC(=O)OCCO1,inactive,inactive,inactive,inactive,inactive,inactive,inactive,–,–,–
COC(=O)c1ccccc1,inactive,–,inactive,inactive,inactive,inactive,inactive,–,–,–
CCC=CCCO,inactive,inactive,inactive,inactive,inactive,inactive,inactive,–,–,–
O=C1CCCCCCCCCCCCCCO1,inactive,inactive,inactive,inactive,inactive,inactive,inactive,–,–,–
CCCCCC(=O)O,inactive,inactive,inactive,inactive,inactive,inactive,inactive,–,–,–
